# PubChem BioAssay AID504808 – Drosophila RNAi Screening Center – 2011
# Screen: 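Fly genes required to hold E2F transcription in check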 (primary screen)
# Cell system: Drosophila S2 cells
# Reagent: long dsRNA against Drosophila genes
# Read-out: 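Dual luciferase plate measurements; E2F-specific signal taken as firefly over Renilla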
# Scale: E2F firefly: higher = more E2F reporter activity; Renilla normaliser: higher = more normaliser reporter signal
# Call rule: 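a knock-down counted as active when the firefly/Renilla E2F signal rose above 50%, a threshold chosen arbitrarily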
# In all, the deposit lists about 21,000 reagents; shown is an unselected part of those with a known target gene and a result. In the full data, 18 (0.084%) got an active call. 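Raw counts without plate normalisation, one of two replicates; the ratio scores behind the calls were not deposited.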 A number with no mark means an inactive call. Reagents against one gene are numbered here. Names joined by + are all predicted targets of the reagent. Not stated in the record: the amount of reagent, the time to read-out.
gene knocked down,reagent no.,"E2F firefly, rep 1","Renilla normaliser, rep 1"
Kat60 (Katanin 60),1,1.25e5,5574
Or59c (Odorant receptor 59c),1,1.15e5,4675
CG40378 (retired record),1,84277,2409
CG6508,1,1.47e5,5599
CG10139,1,3055,192
Bdbt (Bride of doubletime),1,1.17e5,6431
sls (sallimus),1,84099,4296
sls (sallimus),2,1.05e5,4886
sls (sallimus),3,99324,4289
Sry-delta (Serendipity delta),1,1472,824
jing,1,1.07e5,5453
jing,2,1.32e5,6124
jing,3,79460,3394
Tbc1d15-17 (TBC1 domain family member 15/17),1,85563,3800
or (orange),1,1.09e5,4082
CG13717 (retired record),1,55569,3387
CG13717 (retired record),2,96922,3950
CG13717 (retired record),3,87144,3641
CG15186,1,1.36e5,6599
GNBP2 (Gram-negative bacteria binding protein 2),1,78596,3349
CG14960,1,1.01e5,4287
Als2 (Amyotrophic lateral sclerosis 2),1,74164,3492
bbc (bb in a boxcar),1,72453,4429
D12,1,95950,4211
CG11400,1,1.55e5,5823
CG15056,1,2.39e5,7448
CG13436,1,97215,4129
CG15386 + CG42371,1,1.71e5,6248
Marc (Mitochondrial amidoxime reducing component),1,1.59e5,6002
CG12194,1,1.47e5,5733
Meics (Meiotic central spindle),1,1.16e5,5659
Cpr51A (Cuticular protein 51A),1,1.06e5,5094
CG9933,1,95299,3988
vilya,1,1.16e5,5407
CG5122,1,1.03e5,4759
sqh (spaghetti squash),1,8180,704
CG10909,1,1.21e5,5508
Polr1A (RNA polymerase I subunit A),1,2884,224
Jon25Biii (Jonah 25Biii),1,1.58e5,5595
TpnC47D (Troponin C at 47D),1,89326,3742
CG6236,1,70746,3669

9 entries from above, set out differently:
| gene knocked down | reagent no. | E2F firefly, rep 1 | Renilla normaliser, rep 1 |
| --- | --- | --- | --- |
| CG14960 | 1 | 1.01e5 | 4287 |
| Als2 (Amyotrophic lateral sclerosis 2) | 1 | 74164 | 3492 |
| bbc (bb in a boxcar) | 1 | 72453 | 4429 |
| D12 | 1 | 95950 | 4211 |
| CG11400 | 1 | 1.55e5 | 5823 |
| CG15056 | 1 | 2.39e5 | 7448 |
| CG13436 | 1 | 97215 | 4129 |
| CG15386 + CG42371 | 1 | 1.71e5 | 6248 |
| Marc (Mitochondrial amidoxime reducing component) | 1 | 1.59e5 | 6002 |

The list goes on:
gene knocked down,reagent no.,"E2F firefly, rep 1","Renilla normaliser, rep 1"
P5CDh1 (delta-1-Pyrroline-5-carboxylate dehydrogenase 1),1,78816,3838
Scp1 (Sarcoplasmic calcium-binding protein 1),1,78972,2819
Scp1 (Sarcoplasmic calcium-binding protein 1),2,80767,3452
Scp1 (Sarcoplasmic calcium-binding protein 1),3,1.38e5,6653
CG3527,1,39690,3357
bap (bagpipe),1,66688,3637
CG9416,1,1.66e5,5633
wcd (wicked),1,63855,3140
Pdp1 (PAR-domain protein 1),1,48825,3247
Pdp1 (PAR-domain protein 1),2,79901,3027
Pdp1 (PAR-domain protein 1),3,88473,3892
Rab9Db + Rab9D + Rab9Fa + 1 more,1,84497,2406
CG17776,1,1.46e5,6331
Prdm13 (PR/SET domain 13),1,1.04e5,3956
CG5217,1,1.32e5,7204
CG30291,1,1.24e5,5122
CG14252,1,1.18e5,5570
BEAF-32 + CG42254 (retired record),1,1.15e5,4174
knk (knickkopf),1,1.59e5,5963
ema (endosomal maturation defective),1,1.15e5,6363
obe (obelus),1,85869,3764
Gr98d (Gustatory receptor 98d),1,1.11e5,6347
az2,1,80627,3898
CG13806,1,93348,4142
CG18870,1,1.08e5,4878
CG15696,1,1.45e5,7534
Gld2 (GLD2 poly(A) polymerase),1,68889,4698
"IP3K1 (Inositol 1,4,5-triphosphate kinase 1)",1,89867,3717
cno (canoe),1,84099,3867
cno (canoe),2,50671,2215
CG4612,1,64353,3620
Rb97D (Ribonuclear protein at 97D),1,1.18e5,5706
CG34133,1,1793,1020
f (forked),1,55536,3591
f (forked),2,1.48e5,5741
f (forked),3,1.34e5,5803
CG5808,1,65390,3478
Ptx1,1,1.25e5,6770
Neos (Neosin),1,90831,3656
CG11313,1,1.19e5,5856
Graf (GTPase regulator associated with FAK),1,8044,796
ClC-b (Chloride channel-b),1,1.05e5,4079
CG13155,1,95102,4150
